Experimental data: PubChem BioAssay AID485298 (National Center for Advancing Translational Sciences (NCATS), 2010)
Among all 320,000 compounds or so, about 740 (0.23%) were called active. This list was built around the results that the source calls inconclusive (neither active nor inactive); the mix of calls is not that of the screen. Calls come from the whole dose curve; as a rule, active = well fitted activation curve with a large enough effect; inconclusive = small, poorly fitted or top-dose-only effect; inactive = no such curve, though single readings can be large or run the other way. A potency beside an inconclusive call is a rough fit, not a confirmed value. A structure can be active in one record and inactive in another.

Test: qHTS Assay for Small Molecule Inhibitors of Mitochondrial Division or Activators of Mitochondrial Fusion; note: nearly all actives have a fitted effect of over 45% in size;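 for growth rescue (activation): temperature-sensitive fusion mutants such as fzo1-1 at 37 °C on non-fermentable ethanol glycerol medium; % of control where 0% means no effect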
Conditions: S. cerevisiae fusion-defective mutant growth rescue, CellTiterGlo 48 h; growth rescue (activation): at 46.1 µM (top of the series) unless noted
How it was run: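 Yeast fusion mutant, YPEG (non-fermentable carbon), compound, 48 h at 37C non-permissive; CellTiterGlo added, 10 min RT, luminescence read. Rescued growth = division inhibition.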
Potency is the fitted concentration of half-maximal effect.

Row | Structure (SMILES) | Potency | growth rescue (activation)
1 | COc1ccc(Cl)cc1NC(=O)CNc1ccccc1F | inconclusive: 11.2 µM [activator, partial curve] | –
2 | Cc1cccc(C)c1NC1=C(Cl)C(=O)OC1OC(=O)c1ccccc1 (centres undefined) | inconclusive: 11.2 µM [activator, partial curve] | –
3 | CNc1nc2sc3c(c2c(=O)n1C)CC(C)(C)SC3 | inconclusive: 22.4 µM [activator, single point] | –
4 | CCN(CC)c1ccc(/C=N/NC(=O)c2ccc([N+](=O)[O-])cc2)cc1 | inconclusive: 15.8 µM [activator, partial curve] | –
5 | Cc1cccc(C)c1NC(=O)CSc1nnc(C)c(=O)[nH]1 | inconclusive: 10 µM [activator, partial curve] | –
6 | Cc1ccc(NC(=O)/C(Cl)=C/c2ccccc2)cc1C | inconclusive: 28.2 µM [activator, single point] | –
7 | Cc1ccc([N+](=O)[O-])cc1S(=O)(=O)N(C(=O)c1ccncc1)c1ccc2oc3c(c2c1)CCCC3 | active: 12.6 µM | –
8 | COC(=O)c1sccc1NC(=O)c1cccc(OC)c1 | – | inactive: 24.4%
9 | COc1ccc(OC)c(NC(=O)c2cccc3c2C(=O)N(C2CCCCC2)C3)c1 | inconclusive: 22.4 µM [activator, single point] | –
10 | C=CCn1c(SCC(=O)N2CCc3ccccc3C2)nc2sc(CC)cc2c1=O | inconclusive: 14.1 µM [activator, partial curve] | –
11 | Cc1cccc(C2CN(C)CCc3c2cc(O)c(O)c3Cl)c1 (centres undefined) | inconclusive: 20.6 µM [activator, single point] | –
12 | CCCOC(=O)c1cccc(NC(=O)c2c(-c3ccccc3Cl)noc2C)c1 | – | inactive: 2.08%
13 | CCCCN(CCO)c1ncnc2sc(-c3ccccc3)cc12 | inconclusive: 35.5 µM [activator, partial curve] | –
14 | COc1ccccc1NC(=O)Nc1sccc1-c1nc2ccccc2s1 | inconclusive: 11.2 µM [activator, partial curve] | –
15 | CC(CCc1ccccc1)NC(=O)/C=C/c1ccc(F)cc1 (centres undefined) | active: 11.2 µM | –
16 | O=C(Nc1nc(-c2cccs2)c(-c2cccs2)s1)C1CCCC1 | inconclusive: 31.6 µM [activator, single point] | –
17 | CCN1C(=O)CC(N2CCN(c3ccc(Cl)cc3)CC2)C1=O (centres undefined) | – | inactive: 3.28%
18 | CCOC(=O)C1CCN(S(=O)(=O)c2cn(C)c(C)n2)CC1 | – | inactive: -2.21%
19 | O=C(COc1ccc(Br)cc1Br)NC(=S)Nc1cccc(CO)c1 | inconclusive: 25.1 µM [activator, single point] | –
20 | NC(=O)[C@H](Cc1cc2ccccc2s1)NC(=O)[C@@H]1CC2(CC(c3cccc(NC(=O)[C@@H]4CCC(=O)N4)c3)=NO2)CN1C(=O)/C=C/c1c(F)cccc1Cl (some centres undefined) | – | inactive: 0.723%
21 | COc1cc(C)c(-c2[nH]ncc2-c2csc(C)n2)c(O)c1 | – | inactive: -4.18%
22 | COc1ccc(NC(=S)N/N=C/c2cccn2Cc2ccc(F)cc2)cc1 | inconclusive: 3.16 µM [activator, single point] | –
23 | CCc1ccc(C(=O)CSc2nc3cc(S(=O)(=O)N4CCOCC4)ccc3n2CC)cc1 | inconclusive: 2.82 µM [activator, single point] | –

Laid out differently: 3 of the compounds above
Row	Structure (SMILES)	Potency	growth rescue (activation)
5	Cc1cccc(C)c1NC(=O)CSc1nnc(C)c(=O)[nH]1	inconclusive: 10 µM [activator, partial curve]	–
6	Cc1ccc(NC(=O)/C(Cl)=C/c2ccccc2)cc1C	inconclusive: 28.2 µM [activator, single point]	–
7	Cc1ccc([N+](=O)[O-])cc1S(=O)(=O)N(C(=O)c1ccncc1)c1ccc2oc3c(c2c1)CCCC3	active: 12.6 µM	–

More entries follow.

Row | Structure (SMILES) | Potency | growth rescue (activation)
24 | CN(C)c1ccc(NS(=O)(=O)c2ccc(Cl)cc2)cc1 | – | inactive: 0.186%
25 | O=C(Cn1ncc2c([nH]c3ccccc32)c1=O)NCCc1ccc(Cl)cc1 | inconclusive: 3.16 µM [activator, partial curve] | –
26 | O=[N+]([O-])c1ccccc1SN(Cc1ccccc1)c1ccccn1 | inconclusive: 12.6 µM [activator, partial curve] | –
27 | COc1ccc(-c2csc(NC(=O)c3ccco3)n2)cc1 | inconclusive: 28.2 µM [activator, single point] | –
28 | O=S(=O)(Nc1ccc(OC(F)F)cc1)c1ccc(-c2ccon2)s1 | inconclusive: 8.91 µM [activator, partial curve] | –
29 | Oc1cc(O)cc(/C=C/c2ccc(O)c(O)c2)c1 | inconclusive: 6.51 µM [activator, single point] | –
30 | O=C(NN=C1CCCCCC1)c1cccs1 | – | inactive: 2.31%
31 | CCOC(=O)C(NC(=O)c1ccccc1)(Nc1cc(C)on1)C(F)(F)F (centres undefined) | – | inactive: 7.66%
32 | Nc1nnc(-c2cccc(Cl)c2Cl)c(N)n1 | active: 20.6 µM | –
33 | CCN(C(C)=O)c1nnc(CSc2nc3ccccc3s2)s1 | – | inactive: 6.66%
34 | CC(Cl)C(=O)NNC(=O)CNS(=O)(=O)c1ccccc1 (centres undefined) | – | inactive: 8.78%
35 | COc1cccc(-c2cc3nc4c(c(N5CCC6(CC5)OCCO6)n3n2)CCCC4)c1 | inconclusive: 15.8 µM [activator, single point] | –
36 | O=S(=O)(NCC(c1ccc2c(c1)OCO2)N1CCN(c2ccccc2)CC1)c1ccccc1 (centres undefined) | inconclusive: 25.1 µM [activator, single point] | –
37 | CCN(CC)C(=S)SCC(=O)NC12CC3CC(CC(C3)C1)C2 | inconclusive: 15.8 µM [activator, partial curve] | –
38 | Cc1ccc(N(C)C(=O)N2CCN(S(=O)(=O)c3ccc4ccccc4c3)CC2)cc1 | inconclusive: 15.8 µM [activator, single point] | –
39 | Cc1cc(C(=O)O/N=C(\N)c2ccc(C(C)(C)C)cc2)no1 | – | inactive: -6.05%
40 | O=C(c1cc(C2CC2)nn1-c1ccccc1)N1CCN(Cc2ccc(Cl)cc2)CC1 | active: 20 µM | –
41 | CCOc1ccc(-n2c(C)c(C(C)=O)c3cc(OCC(N)=O)ccc32)cc1 | inconclusive: 15.8 µM [activator, partial curve] | –
42 | COc1ccc(C(C)(C)C)cc1NC(=O)CNc1cccc2ccccc12 | – | inactive: 0.378%
43 | COc1ccccc1C(=O)N1c2ccccc2Sc2ccccc21 | inconclusive: 11.2 µM [activator, partial curve] | –
44 | O=S(=O)(c1ccc2nc(N3CCN(c4ccccc4F)CC3)ccc2c1)N1CCCCC1 | – | inactive: -2.74%
45 | O=C(NNC(=S)NC(=O)c1cccc([N+](=O)[O-])c1)c1ccc(Br)cc1 | inconclusive: 0.562 µM [activator, partial curve, poor fit] | –
46 | CCOC(=O)c1cc(C(=O)NNC(=O)c2cccc([N+](=O)[O-])c2)c(C)nc1C | – | inactive: 0.441%

Row | Structure (SMILES) | Potency | growth rescue (activation)
47 | c1ccc2c(Nc3nc(N4CCOCC4)c4ccccc4n3)cccc2c1 | inconclusive: 3.55 µM [activator, partial curve] | –
48 | CN(C(=O)c1cc(COc2c(F)cccc2F)on1)C1CCOC1 (centres undefined) | – | inactive: 2.54%
49 | CC(c1ccc2c(c1)OCO2)n1c(=S)[nH]c2ccccc2c1=O (centres undefined) | inconclusive: 15.8 µM [activator, single point] | –
50 | Cc1nc(NC(=O)C2CCCC2)sc1Cc1ccc2c(c1)OCO2 | inconclusive: 15.8 µM [activator, single point] | –
51 | CN(CCc1cn[nH]c1)Cc1nc(C(c2ccccc2)c2ccccc2)no1 | inconclusive: 22.4 µM [activator, partial curve] | –
52 | CC(C)c1ccccc1NC(=S)N1CCN(Cc2ccc3c(c2)OCO3)CC1 | inconclusive: 22.4 µM [activator, single point] | –
53 | CC(Oc1ccc(F)cc1)C(=O)Nc1cc(S(=O)(=O)N2CCCCC2)ccc1N1CCOCC1 (centres undefined) | inconclusive: 17.8 µM [activator, single point] | –
54 | CCCCN(C(=O)CN1CC(C)OC(C)C1)c1c(N)n(CC(C)C)c(=O)[nH]c1=O (centres undefined) | – | inactive: -3.51%
55 | Cc1ccnc(SCC(=O)c2ccc([N+](=O)[O-])cc2)n1 | – | inactive: 2.02%
56 | Cc1ccccc1C(=O)N1CCN(c2ccc(NC(=O)c3ccc([N+](=O)[O-])o3)cc2)CC1 | – | inactive: 9.31%
57 | CC(NCc1ccncc1)C12CC3CC(CC(C3)C1)C2 (centres undefined) | inconclusive: 11.2 µM [activator, partial curve] | –
58 | CCCOc1ccc(N2C(=O)CC(N(CCOC34CC5CC(CC(C5)C3)C4)C(C)=O)C2=O)cc1 (centres undefined) | inconclusive: 15.8 µM [activator, partial curve] | –
59 | COc1cc(OC)cc(-c2c(-c3cccs3)c3cc(-c4ccn[nH]4)ccc3n2C)c1 | inconclusive: 12.6 µM [activator, single point] | –
60 | CN(Cc1ccccc1)S(=O)(=O)c1nnc(NC(=O)c2ccccc2F)s1 | inconclusive: 7.08 µM [activator, partial curve] | –
61 | CCN1C(=O)[C@H]2[C@@H](c3ccc(-c4ccc(C(C)=O)cc4)cc3)N[C@@](Cc3ccccc3)(C(=O)OC)[C@H]2C1=O | inconclusive: 31.6 µM [activator, single point] | –
62 | S=C(NCCCn1ccnc1)Nc1cccc(Cl)c1 | inconclusive: 5.62 µM [activator, single point] | –
63 | O=C(Cc1n[nH]c(=O)c2ccccc12)Nc1cccc(S(=O)(=O)N2CCCC2)c1 | inconclusive: 35.5 µM [activator, single point] | –
64 | NC(N)=[N+]1CCc2ccccc2C1 | inconclusive: 0.82 µM [activator, full curve, poor fit] | –
65 | COc1ccc(CNC(=O)c2nn(C)c3c2CS(=O)(=O)c2ccccc2-3)cc1 | inconclusive: 25.1 µM [activator, partial curve] | –
66 | CC(=O)Nc1cccc(C(=O)OCC(=O)c2ccc(S(=O)(=O)N3CCCCC3)cc2)c1 | – | inactive: -4.63%
67 | COC(=O)c1sc(S(=O)(=O)Nc2ccc(C)c(C)c2)c(C(=O)OC)c1C | inconclusive: 17.8 µM [activator, single point] | –
68 | COc1ccc([C@H]2CC(=O)C=C(c3ccc(OC)cc3OC)C2)cc1 | inconclusive: 25.1 µM [activator, single point] | –
69 | CCCc1c(OCCCOc2ccc(OCC(=O)O)cc2)ccc(C(C)=O)c1O | inconclusive: 20.6 µM [activator, single point] | –

Quoted at random: 2 compounds from above.
Row | Structure (SMILES) | Potency | growth rescue (activation)
56 | Cc1ccccc1C(=O)N1CCN(c2ccc(NC(=O)c3ccc([N+](=O)[O-])o3)cc2)CC1 | – | inactive: 9.31%
68 | COc1ccc([C@H]2CC(=O)C=C(c3ccc(OC)cc3OC)C2)cc1 | inconclusive: 25.1 µM [activator, single point] | –
